# Data source: PubChem BioAssay AID602196 (INSERM, 2012)
# Screen: 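Modifiers of cisplatin sensitivity in A549 cells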
# Cell system: human A549 lung cancer cells
# Reagents: siRNA pair against human genes
# Timing: 48 h transfection before cisplatin; time from cisplatin to read-out not stated
# Treatment: cisplatin at a dose killing half of control-siRNA cells; exact dose and duration not given
# Read-out: 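Shift in cisplatin death relative to control siRNA, from -50 (all cells die) to +50 (no cells die); siRNAs harmful on their own scored 0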
# Direction: two-siRNA summed score (-2 to +2): higher = both siRNAs protect from cisplatin killing; -2 means both sensitise; mean protection from cisplatin (shift in death) and protection from cisplatin (shift in death), siRNA C and protection from cisplatin (shift in death), siRNA D: higher = protection from cisplatin killing
# Active means: 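siRNAs harmful alone (LDH or WST-1) get 0; others get +1 for less and -1 for more cisplatin killing; genes are active when the two siRNAs give the same sign, summing to ±2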
# Meaning of the calls: active = both siRNAs shift cisplatin killing the same way; inactive = no consistent shift, or siRNA harmful alone
# The whole screen tested about 23,000 reagents; shown is an unselected part. Over the whole deposit, 455 (2%) are marked active. 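Active includes both protection and sensitisation; some change values fall well beyond the stated -50 to +50 range.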 A number with no mark means an inactive call. Reagents against one gene are numbered here. Not given: the amount of reagent.
gene knocked down,reagent no.,two-siRNA summed score (-2 to +2),mean protection from cisplatin (shift in death) (%),"protection from cisplatin (shift in death), siRNA C (%)","protection from cisplatin (shift in death), siRNA D (%)"
ACSM5,1,0,3.6,3.2,4
LOC401895,1,1,13.4,22.7,4
MAMLD1,1,0,27.8,8.4,47.2
ALPK2,1,0,7.6,9.4,5.7
CD163,1,0,9.1,3.4,14.7
LOC440423,1,2 (active),22.6,21.8,23.4
RFLNB,1,0,4.4,10.9,-2
PSG8,1,0,17.4,34.5,0.2
USP44,1,0,1.4,-1.6,4.5
ABHD15,1,0,7.4,6.5,8.3
AGO2,1,0,7.6,14.3,0.9
AMDHD1,1,0,9.1,8.4,9.8
CD55,1,0,5.1,14.1,-3.8
LOC440825,1,0,20.6,35.4,5.8
SLFN13,1,0,-4.1,8.2,-16.4
NOS2,1,1,4.2,19.7,-11.3
TMEM263,1,1,14.7,22.2,7.3
HEPACAM,1,-1,0.7,25.8,-24.3
OR7D4,1,1,-1.7,24.9,-28.4
OR7D4,2,1,16.5,2.5,30.4

The list goes on; the last 2 above are carried over.
gene knocked down,reagent no.,two-siRNA summed score (-2 to +2),mean protection from cisplatin (shift in death) (%),"protection from cisplatin (shift in death), siRNA C (%)","protection from cisplatin (shift in death), siRNA D (%)"
OR7D4,1,1,-1.7,24.9,-28.4
OR7D4,2,1,16.5,2.5,30.4
PSMC6,1,0,5.3,11.1,-0.4
TESC,1,-1,-10.9,-18.1,-3.7
LOC401025,1,0,9.3,7.7,10.8
FPGT,1,0,0.5,7.6,-6.5
NPTN,1,0,2.8,0.8,4.8
LOC439960,1,0,8.5,8.2,8.9
ZC3H3,1,1,16.4,17,15.9
GRK4,1,0,0.9,5.3,-3.4
PDE2A,1,0,-11.6,-16.2,-7
RTN4,1,0,7.2,6.3,8.2
KLB,1,0,-7.1,-9.5,-4.7
ADAM29,1,0,-7.3,-6.9,-7.7
PLLP,1,0,-3.2,-9.8,3.3
LINC02709,1,0,20.5,1.6,39.3
FLJ25339,1,-1,-15.1,3.8,-33.9
DNAAF9,1,0,8.7,8.4,9
SPINK7,1,0,4,1.9,6
TMEM94,1,0,0,-2,2
LOC442611,1,0,-1.9,1.7,-5.5
